Source: paper PMC5785343
For at least one entry, the source does not settle the construct or the ends of the probe. For some of these results: A negative result means that nothing was seen under these conditions.

What was measured:
[1] = system: GST-MabHLH6-C; test: competition with a labelled probe; details: EMSA, LightShift Chemiluminescent EMSA kit (Thermo) per manufacturer, pH and temperature not stated, native PAGE, recombinant protein, protein details: GST (N-terminal, pGEX-4T-1)
[2] = system: GST-MabHLH6-C; test: EMSA; details: LightShift Chemiluminescent EMSA kit (Thermo) per manufacturer; pH and temperature not stated; native PAGE; recombinant protein; protein details: GST (N-terminal, pGEX-4T-1); label: biotin 5' (text, 3' end labeling kit named)

Sequence	binding result [2]	other results
ATCGTCCGACAAGTTTGAGGTACGACTGCCATTACTGCAGCCTCACTTGTAGCCTTCC (double strand) [MaAMY3C mprobe]		binding result ([1]; labelled N8): no binding
ATCGTCCGCAAATGTTGAGGTACGACTGCCATTACTGCAGCCTCCATTTGAGCCTTCC (double strand) [MaAMY3C probe]	binds	
CGAAACGACCACCTTTCTTCGTTATCGGTATTCCACGGGTCGTTGTCTTCCTCCTTGG / CCAAGGAGGAAGACAACGACCCGTGGAATACCGGTAACGAAGAAAGGTGGTCGTTTCG [MaISA2 mprobe]		binding result ([1]; labelled N9): no binding
CGAAACGACCACCTTTCTTCGTTCACGTGATTCCCAGGTGCGTTGTCTTCCTCCTTGG (double strand) [MaISA2 probe]	binds	
CGGCGCGCTATCATCCATGCACTCGTCGTTACCAACCGGTTCGCTGCCGGAGCCGTCGG (double strand) [MaBAM1 mprobe]		binding result ([1]; labelled N3): no binding
CGGCGCGCTATCATCCATGCCATCTGCGTTACCACACGTGTCGCTGCCGGAGCCGTCGG (double strand) [MaBAM1 probe]	binds	
GACCAATGTAAACGCTGTATGGCGAGTGCACCGGTGATTTTTTAAATTAACCAATAAAA (double strand) [MaBAM8 mprobe]		binding result ([1]; labelled N5): no binding
GACCAATGTAAACGCTGTATGGCGAGTGCCACGTGGATTTTTTAAATTAACCAATAAAA (double strand) [MaBAM8 probe]	binds	
GCAAATATACCGGTCGGGTTAAGCCCGAAATATTAGAACTCGACGAACTGGTCTCCAGA / TCTGGAGACCATGTCGTCGAGTTCTAATATTTCGGGCTTAACCCGACCGGTATATTTGC [MaLSF2 mprobe]		binding result ([1]; labelled N2): no binding
GCAAATATCACGTGCGGGTTAAGCCCGAAATATTAGAACTCGACGACATGTGCTCCAGA (double strand) [MaLSF2 probe]	binds	
GCCACCGGATGACAGGTGGGTGGCATTGCCGATCTTGGTTTTCACTTGTGATGGCGCTG (double strand) [MaBAM2 mprobe]		binding result ([1]; labelled N4): no binding
GCCACCGGATGCAAGTGGGGTGGCATTGCCGATCTTGGTTTTCCATTTGGATGGCGCTG (double strand) [MaBAM2 probe]	binds	
TACGTTGCACACGTGATTAGAACTGGTAGGGGGTCCCAATTAACCAGTACAGGTCCTA (double strand) [MaAMY3 mprobe]		binding result ([1]; labelled N7): no binding
TACGTTGCCAACTGGATTAGACATGTGAGGGGGTCCCAATTACACATGACAGGTCCTA (double strand) [MaAMY3 probe]	binds	
TCAAAATATATGGTTATATTTACTTCAACAAGTATATTGTTTGGGACAACATACTCTCT (double strand) [MaBAM10 mprobe]		binding result ([1]; labelled N6): no binding
TCAAAATATATGGTTATATTTACTTCACAAATGATATTGTTTGGGACAACATACTCTCT (double strand) [MaBAM10 probe]	binds	
TCTAATACCAGTATGGTGTGTGGCCGCCATCATTCTCTCCCAAGCAACACCGGTTAAAC (double strand) [MaGWD1 mprobe]		binding result ([1]; labelled N1): no binding
TCTAATCACATGATGGTGTGTGGCCGCCATCATTCTCTCCCAAGCAACCACGTGTAAAC (double strand) [MaGWD1 probe]	binds	
TTAGGAAAGTGATAACATGTAGACCGGTCTTGGACCGGTGGAGGAGTGGGACCCACGGA (double strand) [MaISA3 mprobe]		binding result ([1]; labelled N10): no binding
TTAGGAAAGTGATAACCTGTAGCACGTGCTTGGCACGTGGGAGGAGTGGGACCCACGGA / TCCGTGGGTCCCACTCCTCCCACGTGCCAAGCACGTGCTACATGTTATCACTTTCCTAA [MaISA3 probe]	binds	
TTGGTCACGTTATGTTGTGATATTTAACGAAACCAGTAGATTGAGATCACACCGACGGG (double strand) [MapGlcT2-2 mprobe]		binding result ([1]; labelled N11): no binding
TTGGTCACGTTATGTTGTGATATTTAACGAACACATGAGATTGAGATCACACCGACGGG (double strand) [MapGlcT2-2 probe]	binds	
